# Primary screen of a compound library

By UniProt entry, the sequences of proteins in these tests, tags left out. Residues count along the entry.
UniProt Q4DA54, 1-478: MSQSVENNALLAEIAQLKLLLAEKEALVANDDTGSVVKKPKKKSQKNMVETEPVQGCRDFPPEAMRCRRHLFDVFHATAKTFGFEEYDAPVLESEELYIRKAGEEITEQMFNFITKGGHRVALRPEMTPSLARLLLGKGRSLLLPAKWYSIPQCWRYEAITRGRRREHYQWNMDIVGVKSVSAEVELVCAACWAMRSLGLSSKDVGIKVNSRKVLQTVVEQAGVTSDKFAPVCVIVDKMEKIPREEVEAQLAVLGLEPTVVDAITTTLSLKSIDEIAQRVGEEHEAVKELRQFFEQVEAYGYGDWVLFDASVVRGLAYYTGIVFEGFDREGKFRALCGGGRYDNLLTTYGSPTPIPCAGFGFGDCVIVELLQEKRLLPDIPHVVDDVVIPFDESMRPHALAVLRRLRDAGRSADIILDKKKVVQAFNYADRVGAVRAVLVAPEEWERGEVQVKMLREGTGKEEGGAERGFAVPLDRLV
UniProt P9WNZ1, whole entry: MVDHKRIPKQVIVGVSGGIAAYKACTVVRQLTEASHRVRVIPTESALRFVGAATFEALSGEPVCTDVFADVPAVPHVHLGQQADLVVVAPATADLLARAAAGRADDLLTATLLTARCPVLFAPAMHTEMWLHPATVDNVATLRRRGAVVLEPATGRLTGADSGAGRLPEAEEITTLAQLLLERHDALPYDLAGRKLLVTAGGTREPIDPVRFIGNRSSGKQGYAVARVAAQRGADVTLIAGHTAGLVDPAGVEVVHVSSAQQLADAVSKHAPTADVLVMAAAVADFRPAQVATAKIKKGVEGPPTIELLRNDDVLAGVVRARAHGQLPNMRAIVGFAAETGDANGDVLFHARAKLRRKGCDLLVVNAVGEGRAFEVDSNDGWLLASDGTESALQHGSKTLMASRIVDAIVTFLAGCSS

Toxoplasma: 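Assay of Toxoplasma gondii numbers, read through their beta-galactosidase reporter with a colour substrate. Concentration: 10 µM. The record gives no direction; the compounds picked for IC50 retests had high values, so higher reads as fewer parasites. About 67,000 compounds were tested under these conditions; 0.38% (about 260) showed 50% or more at least once.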
TcHisRS: 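Histidine-tRNA ligase, Trypanosoma cruzi CL Brener (UniProt Q4DA54). Enzyme assay of histidyl-tRNA synthetase; the read-out is not stated. Tested at 30 µM. Higher reads as stronger inhibition (inferred: compounds with an IC50 in retests scored well above the rest). About 69,000 compounds were tested under these conditions; 0.045% (about 31) showed 50% or more at least once.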
CoaBC: 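Enzyme assay of CoaBC with a phosphate dye (Biomol Green) read at 650 nm. Target: Coenzyme A biosynthesis protein CoaBC, Mycobacterium tuberculosis (UniProt P9WNZ1). Compounds at 30 µM. Higher reads as stronger inhibition, judged from the few compounds that gave an IC50. Most strong results did not repeat in a second test. About 67,000 compounds were tested under these conditions; 0.06% (about 40) showed 50% or more at least once.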
Leishmania in macrophages: 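Cell assay of Leishmania donovani living inside macrophages; the read-out is not stated. Concentration: 30 µM. Higher reads as stronger inhibition (inferred: compounds with an IC50 in retests scored well above the rest). About 69,000 compounds were tested under these conditions; 1.5% (about 1,000) showed 50% or more at least once.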

Results are given as percent effect.
How 0% and 100% were set is not recorded. Most values in the screen are low, and negative values occur.
The compounds are a random part of those screened.
Two or more numbers in one place are separate tests of the same structure; such repeats can differ widely.
A dash means the value is not listed here; it may have been measured.

- CC(C)CC(C)N(C)C(=O)CCn1cccn1 (stereo not drawn) : Toxoplasma: 7.163%; TcHisRS: 1.685%; CoaBC: 5.433%; Leishmania in macrophages: 2.492%
- CC(c1ccon1)N(C)Cc1cc(O)c2cc(F)ccc2n1 (stereo not drawn) : Toxoplasma: 5.08%; TcHisRS: 0.5525%; CoaBC: -5.357%; Leishmania in macrophages: 35.64%
- COc1cccc(OC)c1CNC(Cc1ccsc1)c1ccc(C)cn1 (stereo not drawn) : TcHisRS: 19.23%; CoaBC: -1.9%; Leishmania in macrophages: 99.68%
- Cc1nccn1C1CCCN(C(=O)c2cc3c(F)cccc3[nH]2)C1 (stereo not drawn) : Toxoplasma: -5.793%; TcHisRS: 4.571%; CoaBC: 0.5249%; Leishmania in macrophages: 12.26%
- c1cc(CN2CCC3(CC2)COC(COCC2CC2)C3)co1 (stereo not drawn) : Toxoplasma: -11.72%; TcHisRS: 2.913%; CoaBC: 2.703%; Leishmania in macrophages: -8.542%
- CCOc1ccc(NC(=O)NCc2cccnc2OCC)cc1 : Toxoplasma: -1.501%; TcHisRS: -3.429%; CoaBC: 5.735%; Leishmania in macrophages: -4.326%
- COCCn1cc(NC(=O)NC(C)Cc2c(F)cccc2F)cn1 (stereo not drawn) : Toxoplasma: -2.636%; TcHisRS: -2.254%; CoaBC: 2.163%; Leishmania in macrophages: -12.31%
- COc1ccc([C@@H]2CN(C(=O)c3cscn3)C[C@H]2C(=O)O)cc1 : Toxoplasma: 11.19%; TcHisRS: 10.65%; CoaBC: -0.1236%; Leishmania in macrophages: 2.004%
- Cc1nn(C)c(C)c1CN(C)C1CCN(c2ncnc3[nH]cnc23)CC1 : Toxoplasma: -5.444%; TcHisRS: -6.897%; CoaBC: 14.8%; Leishmania in macrophages: -29.04%
- Cc1csc(N2CCCN(C(=O)CCN3CCCC3=O)CC2)n1 : Toxoplasma: -0.1193%; TcHisRS: -1.587%; CoaBC: 6.818%; Leishmania in macrophages: -13.31%
- [H][C@@]12CS(=O)(=O)C[C@]1([H])N(Cc1ncccc1C)CCN2CC(=O)N(C)C : Toxoplasma: 15.82%; Leishmania in macrophages: 19.28%
- CCOc1ccccc1C(=O)NC(CC(=O)O)c1cccs1 (stereo not drawn) : Toxoplasma: -25.3%; TcHisRS: 3.38%; CoaBC: 6.997%; Leishmania in macrophages: 21.56%
- CCC(C)CS(=O)(=O)NC(=O)C1CC1 (stereo not drawn) : Toxoplasma: 5.933%; TcHisRS: 5.732%; Leishmania in macrophages: 1.942%
- COc1cc(C(=O)NS(=O)(=O)c2cccc(C#N)c2)cc(OC)c1Br : Toxoplasma: -14.49%; TcHisRS: -1.156%; CoaBC: 2.682%; Leishmania in macrophages: 13.19%
- O=C(O)C(F)(F)F.O=C(O)C(F)(F)F.O=C(O)C(F)(F)F.c1ccc(CN2CCCC3(CCN(Cc4cccs4)C3)C2)nc1 (stereo not drawn) : Toxoplasma: 3.119%; Leishmania in macrophages: 11.47%
- COCC(C)NC(=O)N1CCN(S(C)(=O)=O)CC1 (stereo not drawn) : Toxoplasma: 19.2%; TcHisRS: 0.8696%; CoaBC: -2.45%; Leishmania in macrophages: -8.94%
- CN(C)c1ccccc1CN1CCC(N2CCCC2=O)CC1 : Toxoplasma: 1.705%; TcHisRS: 5%; CoaBC: 0%; Leishmania in macrophages: -2.301%
- CNc1cccc(C2CCCN(C(=O)c3cccnc3)C2)n1 (stereo not drawn) : Toxoplasma: -7.457%; TcHisRS: 7.778%; CoaBC: 3.874%; Leishmania in macrophages: -5.713% and 17.18%
- CC(C)N1CCC(CC(=O)NC[C@H]2CCc3ccccc3O2)CC1 : Toxoplasma: -6.663%; TcHisRS: 4.167%; CoaBC: -0.609%; Leishmania in macrophages: -31.2%
- O=C(Cc1ccc(-c2ccccc2)cc1)N1CCOCC(O)C1 (stereo not drawn) : Toxoplasma: 22.56%; TcHisRS: 2.941%; CoaBC: -1.707%; Leishmania in macrophages: -5.079%
- CCc1ncc2c(n1)CN(c1cc(NCCO)nc(N)n1)C2 : Toxoplasma: -13.18%; TcHisRS: 8.929%; CoaBC: 3.648%; Leishmania in macrophages: 9.393%
- N#CCCN(CC1CCCO1)C(=O)c1ccc2nonc2c1 (stereo not drawn) : Toxoplasma: -7.287%; TcHisRS: 4.545%; CoaBC: 1.214%; Leishmania in macrophages: -11.43%
- O=C(NCC1CC1)c1n[nH]c2c1CNCC2 : TcHisRS: 6.796%; CoaBC: 3.053%
- O=C(N1CCCC1)N1Cc2nccn2CC(CN2CCCC2)C1 (stereo not drawn) : TcHisRS: 9.392%; CoaBC: 6.17%
- CCc1noc(C2CCCCN2C(=O)c2cccs2)n1 (stereo not drawn) : Toxoplasma: -60.4%; TcHisRS: 4.348%; CoaBC: -1.155%; Leishmania in macrophages: -63.77%
- N#CCCN(CC1CCOC1)S(=O)(=O)c1cccc(Cl)c1 (stereo not drawn) : Toxoplasma: 8.804%; TcHisRS: 3.922%; CoaBC: -0.9569%; Leishmania in macrophages: 21.98%
- Cc1[nH]ccc1C(=O)N1CCC2(CC1)c1nc[nH]c1CCN2CC(C)C : TcHisRS: 8.046%; CoaBC: -0.369%; Leishmania in macrophages: 14.63%
- CCC(O)CN1CCN(C(=O)CCc2c(C)noc2Cl)CC1 (stereo not drawn) : Toxoplasma: -8.056%; TcHisRS: 3.468%; CoaBC: 2.216%; Leishmania in macrophages: 26.81%
- COc1ccc(Cc2ncc3c(n2)CN(C(=O)CCO)C3)cc1 : Toxoplasma: 5.36%; TcHisRS: -6.806%; CoaBC: 2.263%; Leishmania in macrophages: 11.89%
- CC(C)(C)c1cn(C[C@H]2CC3CCN2C[C@@H]3C(=O)NC2CC2)nn1 (stereo partly drawn) : Toxoplasma: 0.1806%; TcHisRS: -2.174%; CoaBC: 5.077%; Leishmania in macrophages: -9.945%
- Cn1nnc2cc(C(=O)NS(=O)(=O)c3ccc(F)cc3)ccc21 : Toxoplasma: 6.242%; TcHisRS: 7.563%; CoaBC: 6.048%; Leishmania in macrophages: 9.743%
- O=C(c1ccncc1)N1CC2(CCNCC2)c2cc(Cl)ccc21 : TcHisRS: 4.327%; CoaBC: 5.882%
- CNc1ncc2c(n1)CN(CCc1ccc(Cl)cc1)C2=O : Toxoplasma: -35.33%; TcHisRS: 7.589%; CoaBC: 3.316%; Leishmania in macrophages: 23.31%

Once more, the final 2:

| compound | Toxoplasma | TcHisRS | CoaBC | Leishmania in macrophages |
|---|---|---|---|---|
| `O=C(c1ccncc1)N1CC2(CCNCC2)c2cc(Cl)ccc21` | - | 4.327 | 5.882 | - |
| `CNc1ncc2c(n1)CN(CCc1ccc(Cl)cc1)C2=O` | -35.33 | 7.589 | 3.316 | 23.31 |

The values are deposited in ChEMBL (CHEMBL3988442, “University of Dundee, Small-Polar-MMV Screening Library” (2021)).